Primary screen of a compound library

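Whole-cell growth test on Mycobacterium tuberculosis, read after 3 days in glucose-containing 7H9 medium; the read-out is not stated. Concentration: 50 µM. The record gives no direction; compounds that gave an IC50 in retests scored well above the rest, so higher reads as more growth inhibition. About 69,000 compounds were tested under these conditions; 1.1% (about 760) showed 50% or more at least once.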

Each number is a percent effect as filed. The record does not define 0% and 100%; most values in the screen are far below 50% and negative numbers occur (in some assays of this library far below -100). The compounds are a random part of those screened. Two or more numbers in one place are separate tests of the same structure; such repeats can differ widely.

SMILES	Percent Effect
CCOc1ccccc1C(=O)N(C)C(C)c1ccc(S(C)(=O)=O)cc1 (stereo not drawn)	20.12%
CN1CCC(Cc2noc(-c3cccc(OCC(N)=O)c3)n2)CC1	-28.43%
Cc1ccc(Br)cc1C(=O)Nc1cc(C(N)=O)n(C)c1	16.11%
Cc1cnn(CC2CCCN2C(=O)Cc2c(C)noc2Cl)c1 (stereo not drawn)	-35.77%
Cc1cc(C)nc(N2CCC(c3c(C(N)=O)sc4ccccc34)C2)n1 (stereo not drawn)	9.149%
CC(C)(C)n1ncc2c(=O)n(CC(=O)NCc3ccccc3Cl)cnc21	-22.54% & 12.71%
CCN(Cc1cnn(C)c1)S(=O)(=O)c1ccc(NC(C)=O)cc1	-12.82%
COc1ccccc1CN1CCC(O)(Cn2ccc3ncccc32)CC1	11.34%
Cc1nc(CN2CCCC(N(C)Cc3nc(C)c(C)o3)C2)no1 (stereo not drawn)	26.68%
CN(C)CCN1CC(C(=O)N2CCC(c3cccc(O)c3)CC2)CC1=O (stereo not drawn)	-5.051%
COc1cccc(OC)c1C(=O)N1C[C@@H](CN(C)C)[C@@H](CO)C1	15.33%
O=C(NC1CCNCC1)C1(N2CCCCC2)Cc2ccccc2C1	2.541%
O=C(Nc1ccc(-n2ccc(C(=O)O)n2)cc1)c1ccccc1	23.06%
Cc1ccc(-c2nnc(CNCCn3cc(C)cn3)o2)cc1	-2.531%
Cc1cc(O)cc(=O)n1CCCC(=O)Nc1n[nH]c2cc(Br)ccc12	0.6717%
COCCN1CCc2cc(C(=O)NCC3CC3)c(NC(C)C)nc2CC1.O=C(O)C(F)(F)F.O=C(O)C(F)(F)F	26.43%
Cc1nn(C)c2nc(-c3ccccn3)nc(NC[C@@H]3CCCO3)c12	-3.596% & -3.129%
COC(C)c1cccc(NCc2cccs2)c1 (stereo not drawn)	0.6284%
CN1CCN([C@H]2CCN(C(=O)c3nn(C)cc3Cl)C[C@H]2CCCO)CC1	16.67%
COc1ccc(NC(=O)N(CCO)Cc2ccsc2)c(OC)c1	9.112%
[H][C@@]12CCN(C[C@@H]1c1cc(-c3cccs3)nn1C)[C@@H](CN)C2	32.28% & 18.75%
COc1cc(C(=O)N2CC3(CCNCC3)c3cc(Cl)ccc32)ccn1.O=C(O)C(F)(F)F.O=C(O)C(F)(F)F	8.051%
O=C(O)C(F)(F)F.[H][C@@]12CN(C(=O)c3ccoc3)C[C@]1([H])OCCN2C(C)C	-27.82%
[H][C@@]12CS(=O)(=O)C[C@]1([H])N(Cc1cnn(-c3ccccc3OC)c1)CCN2C	-6.777%
O=C(Cn1c(=O)n(Cc2ccco2)c2ncccc21)NC1CC1	-1.884%
CC(=O)c1cn(CC(=O)N[C@H](C(=O)O)C(C)C)c2ccccc12	1.764%
CN(Cc1cncnc1)Cc1cn2c(n1)CN(C1CCOC1)CC2.O=C(O)C(F)(F)F.O=C(O)C(F)(F)F (stereo not drawn)	23.14%
CCN(Cc1ccncc1)C(=O)c1cn(CCC2CCCCC2)nn1	15.62% & 7.024%
CC(O)CN(CC(=O)NC1CCCCC1)c1ccccc1 (stereo not drawn)	15.2%
CCOC(=O)C1CCN(C(=O)CN2CCCC2c2ccccc2C)CC1 (stereo not drawn)	27.17% & 20.7%
CCN(C)c1ccc(CNC(=O)c2ccc(NC(N)=O)cc2)cc1F	34.53%
O=C1c2cnc(N3CCCCC3)nc2CN1c1ccc2c(c1)OCO2	-27.82%
[H][C@]12CN(c3ncccn3)C[C@@]1([H])S(=O)(=O)CC[C@@H]2C(=O)NCC(C)C	0.8813%
CC(C)N(Cc1ccc(C#N)cc1)C(=O)Nc1ccccn1	-7.828%
O=C(CN1CCCCC1)Nc1ncc(Br)cc1Br	-0.9919%
O=C(C1CCC1)N1CCCC1c1nnc2n1CCCCC2 (stereo not drawn)	-2.816%
O=C(NCCCN1CCCCC1)c1n[nH]c(=O)c2ccccc12	18.78%
O=C([C@H]1CCCO1)N1CC[C@@H](O)[C@@H]1Cc1ccccc1	13.75%
CS(=O)(=O)N1CCCN(c2nccn3cnnc23)CC1	-0.8494%
CNC(=O)N1CCC2(CC1)c1ncc(C)n1CCN2C.O=C(O)C(F)(F)F.O=C(O)C(F)(F)F	11.26%
Fc1ccccc1-c1nc(CNCCn2cccn2)cs1	39.44% & 22.1%
CS(=O)(=O)N1CCC(C(=O)Nc2nnc(C(F)(F)F)[nH]2)CC1	12.26% & -0.7665%
[H][C@@]1([C@H](C)C(=O)O)CCc2c(C)cc(OCCC)c(C)c2C1	5.916% & -4.879%
CCOc1ccc(CN2CCCC(c3nn(C)c(=O)n3CC)C2)cn1 (stereo not drawn)	-3.191% & -0.1432%
COCCN(Cc1sccc1C)Cc1nccn1CCOC	5.382%
CN(c1cccnn1)C1CCN(C(=O)c2ccc3c(c2)COC3)CC1	-19.19%
Cl.c1csc(-c2noc(C3CCCNC3)n2)c1 (stereo not drawn)	12.8%
Cc1cccc(N2CCc3ncc(CNS(C)(=O)=O)n3CC2)n1.O=C(O)C(F)(F)F	-6.486%
CC(=O)N1CCC(C(=O)N2CCCC(Cc3cccc(C)n3)C2)CC1 (stereo not drawn)	-14.13%
COc1c(CNCc2cccc(Cn3ccnc3C)c2)c(C)nn1C.Cl	-0.0926% & 1.491%
COCCn1c(C(=O)NCC(C)C(=O)O)cc2ccccc21 (stereo not drawn)	-13.16%
O=C(Cc1ccccn1)N1CCC2(CC1)CC(Oc1ccccn1)CO2.O=C(O)C(F)(F)F.O=C(O)C(F)(F)F (stereo not drawn)	-3.907%
CNc1ccc(Cl)cc1C(=O)N1CCC(Cn2cc(CN)nn2)CC1	30.37%
CS(=O)(=O)NCc1ccc(NC(=O)CC2=CCCCC2)cc1	-6.297% & -3.513%
Cc1oc(C)c(C(=O)NS(=O)(=O)c2ccc3c(c2)OCCCO3)c1C	-18.88% & -0.9812%
COCCCN(C)C(=O)c1cccc(Nc2cnccn2)c1	-14.24%
CCS(=O)(=O)NCCNCc1cc(F)ccc1Br	-7.427% & -19.76%
CC(Cn1cccn1)NC(=O)NCCc1cnn(C)c1 (stereo not drawn)	-15.58%
COc1ccc2nnc(CCCC(=O)NCCC3=CCCCC3)n2n1	9.66%

For reference, 5 entries once more:

- Cc1oc(C)c(C(=O)NS(=O)(=O)c2ccc3c(c2)OCCCO3)c1C : -18.88% & -0.9812%
- CN(c1cccnn1)C1CCN(C(=O)c2ccc3c(c2)COC3)CC1 : -19.19%
- Cc1nc(CN2CCCC(N(C)Cc3nc(C)c(C)o3)C2)no1 (stereo not drawn) : 26.68%
- [H][C@@]1([C@H](C)C(=O)O)CCc2c(C)cc(OCCC)c(C)c2C1 : 5.916% & -4.879%
- O=C(O)C(F)(F)F.[H][C@@]12CN(C(=O)c3ccoc3)C[C@]1([H])OCCN2C(C)C : -27.82%

Source: ChEMBL document CHEMBL3988442, “University of Dundee, Small-Polar-MMV Screening Library” (2021).